The target of experiment [1] is FP10-cr1 (hcFRFP-2) (HcRed-2A) (Heteractis crispa) (UniProt Q95W85). As to the kind of experiment: self-association (homodimer); described in paragraph 181 (gel filtration). In general terms: SEC sorts molecules by how far they enter the pores of the column.
Experiment [2] has the same target. As to the kind of experiment: self-association (homodimer); oligomerization study by gel filtration.

These are yes or no findings as the source states them, for the method shown. Some results given as binding are weak or reduced against the parent protein; the word gives no strength.

B1: FP10-cr1 (hcFRFP-2) (HcRed-2A) (protein)
chain: MSGLLKESMRIKMYMEGTVNGHYFKCEGEGDGNPFAGTQSMRIHVTEGAPLPFAFDILAPCCEYGSRTFVHHTAEIPDFFKQSFPEGFTWERTTTYEDGGILTAHQDTSLEGNCLIYKVKVHGTNFPADGPVMKNKSGGWEPSTEVVYPENGVLCGRNVMALKVGDRHLICHHYTSYRSKKAVRALTMPGFHFTDIRLQMLRKTKDEYFELYEASVARYSDLPEKAN
Consider B1, for which the binding result in experiment [1] and in experiment [2] was “binds” in each case.
